The target of the assay is sex-determining region Y box 4 (Sox4) (UniProt Q06945). Nature of the assay: co-IP; HEK293T cells co-transfected with the indicated plasmids for 48 h, lysed in RIPA lysis buffer; supernatants incubated with the indicated antibodies overnight at 4 °C, protein G Sepharose beads 2 h at 4 °C; Western blotting. (A western blot detects proteins with antibodies after separation by electrophoresis.)

Sequences of proteins named here, by UniProt entry; tags and fusion partners are left off.
UniProt Q06945: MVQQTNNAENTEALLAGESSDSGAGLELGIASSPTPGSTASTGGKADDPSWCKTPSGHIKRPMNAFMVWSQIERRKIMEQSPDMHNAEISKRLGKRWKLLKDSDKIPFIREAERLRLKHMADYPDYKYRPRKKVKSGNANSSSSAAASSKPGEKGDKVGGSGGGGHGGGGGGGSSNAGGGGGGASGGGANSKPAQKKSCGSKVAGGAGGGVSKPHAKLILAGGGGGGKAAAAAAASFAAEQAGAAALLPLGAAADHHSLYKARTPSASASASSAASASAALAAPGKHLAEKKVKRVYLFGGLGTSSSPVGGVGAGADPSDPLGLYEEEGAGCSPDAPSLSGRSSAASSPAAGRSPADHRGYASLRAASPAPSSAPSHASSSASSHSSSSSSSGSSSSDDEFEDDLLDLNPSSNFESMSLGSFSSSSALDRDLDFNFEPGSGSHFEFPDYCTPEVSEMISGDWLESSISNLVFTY

No constants are given. Whether binding was seen depends on the method and setting. In cells and extracts the contact can be indirect. Binding calls can cover weak binding; strength is not graded here.

In the case of “HBV surface protein (HBsAg) (from UniProt P03138)”, the binding entry was “binds”.

The values above are taken from PMC4429541.
